From the supplement of paper PMC8007513 come the findings set out here.

The other results are listed elsewhere or left out. Many values rest on one well or one pass, so single values are uncertain.

For this experiment, the system named is Saccharomyces cerevisiae BY4743. Nature of the experiment: growth (OD600) relative to untreated control; higher = less growth inhibition. The following applies: compound concentration: 133 uM; 20 h. How it is done: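 NMCCC compounds (133 uM, no IPBC) tested alone against Saccharomyces cerevisiae BY4743 in YPD, 96-well plates, starting OD600 ~0.1. Growth was read as OD600 at 20 h and expressed as % of the untreated control. Single pass.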
In the case of `CC(Sc1ncnc2sccc12)C(=O)Nc1cccc(C#N)c1` (stereo not drawn), the growth came out at 107%.
On to `CCC(=O)OCC/1=C/C(=O)N/2\N=C(/SC2=N1)C(C)C`, for which the growth was found to be 102%.
As to `CC1CCN(C(=O)C(NC(=O)NC(C)c2cccs2)c2ccccc2)CC1` (stereo not drawn), the growth was found to be 110%.
The compound `Cc1ccc(S(=O)(=O)N(C)c2c(C)ccc(S(=O)(=O)N3CCCC3)c2C)cc1` returned a growth of 90.6%.
Consider `Cc1cc(CS(=O)(=O)C(C)C(=O)Nc2ccc(Cl)cc2)on1` (stereo not drawn), for which the growth was 115%.
Take `COc1cccc(CNC(=O)N2CCCn3nc(C)cc32)c1`: the growth was determined as 104%.
For the compound `CC(=O)Nc1nc(COC(=O)CNC(N)=O)cs1`, the growth stood at 99.4%.
`COC(=O)c1c(NC(=O)CSc2nc(O)c3ccccc3n2)sc(C)c1C` showed a growth of 104%.
For the compound `CCC(C)N\1C(=O)C2=CC=CC=C2\N=C1SCC(=O)N3CCNC3=O` (stereo not drawn), the growth is 99%.
As for `Cc1ccc2c(c1)NC(C(C)C)NS2(=O)=O` (stereo not drawn), the figure is 88.7%.
As to `O=C(CC1=CC=CS1)N(C\2C[S](=O)(=O)\C=C2)C3=CC=CC=C3` (stereo not drawn), the growth is 108%.
In turn, `Cc1nc(SCC(=O)NC(C)CCc2ccccc2)c2ccccc2n1` (stereo not drawn) came in with a growth of 96.5%.
As for `Cc1c(CCO)c(O)oc2nnc(-c3ccccc3)c1-2`, the figure is 107%.
Take `COc1nccc(N(C)C)c1NC(=O)c1cnn(-c2ccccc2)n1`: the growth worked out at 96%.
Under `CC(NC(=O)CN1\N=N/C2=CC=CC=C2C1=O)C3=CC=CC(=C3)Cl` (stereo not drawn) stands 111%; under `CCCSc1nsc(NC(=O)COC(=O)c2occc2C)n1`, 91.7%.
The compound `CCN(CC)S(=O)(=O)c1ccc(OC)c(NC(=O)CS(=O)(=O)c2ccc(Cl)cc2)c1` showed a growth of 104%.
In turn, `CCOc1ccc(CNc2nc3nc(C)c(C)c(O)n3n2)cc1` came in with a growth of 109%.
For `O=C(Nc1ccc(Cl)c(C(F)(F)F)c1)c1cc2ncccn2n1`, the growth is 106%.
For `COC(=O)CC(NC(=O)c1sc(-c2ccccn2)nc1C)c1ccc(OC)c(OC)c1` (stereo not drawn), the growth worked out at 101%.
`Cc1nn(C)c(C)c1CNS(=O)(=O)c1ccc2c(c1)oc(=O)n2C` had a growth of 86.9%.
As for `CCC(C)N1CCN(C(=O)CN(C)S(=O)(=O)c2ccc3c(c2)c(=O)n(C)c(=O)n3C)CC1` (stereo not drawn), the figure is 106%.
Under `Cc1nc2ccc(NC(=O)CCn3cncn3)cc2s1` stands 92.6%; under `CCCn1c(SCC(=O)Nc2ccc(C(N)=O)cc2)nc2ccc(C(F)(F)F)cc21`, 98.6%; under `Cc1noc2ncnc(NC(C)CCc3ccccc3)c12` (stereo not drawn), 88.3%.
Compound `O=C(CCn1c(=O)oc2ccccc21)OC1CCCCC1=O` (stereo not drawn) yielded a growth of 103%.
As to `N#Cc1ccsc1NC(=O)CCNC1(c2ccc(Br)cc2)CCCC1`, the growth amounted to 107%.
`CCN(CC)CCNC(=O)CN1\C=N/C2=C(C(=NO2)C)C1=O` gave a growth of 76.3%.
`COC(=O)CN\1C(=O)C2=CC=CC=C2\N=C1SC(CC3=CC=C(C)C=C3)C#N` (stereo not drawn) gave a growth of 99%.
With `CC(=O)c1c(C)[nH]c(C(=O)C(C)N2CCC(NS(C)(=O)=O)CC2)c1C` (stereo not drawn), the growth was determined as 117%.
In the case of `Cc1cc(C(=O)COc2ccc(NC(=O)c3ccco3)cc2)c(C)n1C`, the growth worked out at 108%.
For the compound `O=C([O-])c1cc(O)nc2ccc(S(=O)(=O)Nc3ccc(F)cc3)cc12`, the growth is 96%.
Under `Cc1cccc(-c2csc(N)c2C(=O)OC(C)C)c1` stands 17.6%; under `COc1ccc(Cl)cc1-c1n[nH]c(SCC(=O)NC(C)(C#N)C(C)C)n1` (stereo not drawn), 114%.
`CCOC(=O)c1cc2n(n1)CC(C)(C(=O)NCCC(C)C)N(c1ccc(F)cc1)C2=O` (stereo not drawn) returned a growth of 87.7%.
Under `CCOC(=O)c1nnc2ccc(Cl)nn12` stands 93.3%; under `Nc1nccnc1C(=O)OCc1cc2c(cc1Br)OCCO2`, 94%; under `CCS(=O)(=O)c1ccc2oc(SCC(=O)N3CC(C)OC(C)C3)nc2c1` (stereo not drawn), 93.2%.
